A: 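Assay on Mycobacterium tuberculosis, filed only as a heat shock assay from Cornell; the read-out is not stated. The concentration is filed as 10 mM, unlikely as a test dose, so the dose is not known. Direction is inferred from retests: higher values go with stronger inhibition. Size under these conditions: about 69,000 compounds, about 930 of them at 50% or above in at least one test.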
B: 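Whole-cell assay for inhibitors of Mycobacterium tuberculosis growth, labelled Cornell in the record; the read-out is not stated. The concentration is filed as 10 mM, unlikely as a test dose, so the dose is not known. The record gives no direction; compounds strong in two other growth screens of this library score well above the rest, so higher reads as stronger inhibition. About 53,000 compounds were tested under these conditions; 1.7% (about 900) showed 50% or more at least once.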
C: 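Primary screen of methionyl-tRNA synthetase; the read-out is not stated. Target: Methionyl-tRNA synthetase (putative), Leishmania donovani (UniProt E9BF75). The test concentration is not given. Values are per cent inhibition. Of about 68,000 compounds tested this way, about 24 (0.035%) reached 50% or more in at least one test.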

Amino acid sequences for entries named in this document (tags omitted).
UniProt E9BF75, entry or part of it: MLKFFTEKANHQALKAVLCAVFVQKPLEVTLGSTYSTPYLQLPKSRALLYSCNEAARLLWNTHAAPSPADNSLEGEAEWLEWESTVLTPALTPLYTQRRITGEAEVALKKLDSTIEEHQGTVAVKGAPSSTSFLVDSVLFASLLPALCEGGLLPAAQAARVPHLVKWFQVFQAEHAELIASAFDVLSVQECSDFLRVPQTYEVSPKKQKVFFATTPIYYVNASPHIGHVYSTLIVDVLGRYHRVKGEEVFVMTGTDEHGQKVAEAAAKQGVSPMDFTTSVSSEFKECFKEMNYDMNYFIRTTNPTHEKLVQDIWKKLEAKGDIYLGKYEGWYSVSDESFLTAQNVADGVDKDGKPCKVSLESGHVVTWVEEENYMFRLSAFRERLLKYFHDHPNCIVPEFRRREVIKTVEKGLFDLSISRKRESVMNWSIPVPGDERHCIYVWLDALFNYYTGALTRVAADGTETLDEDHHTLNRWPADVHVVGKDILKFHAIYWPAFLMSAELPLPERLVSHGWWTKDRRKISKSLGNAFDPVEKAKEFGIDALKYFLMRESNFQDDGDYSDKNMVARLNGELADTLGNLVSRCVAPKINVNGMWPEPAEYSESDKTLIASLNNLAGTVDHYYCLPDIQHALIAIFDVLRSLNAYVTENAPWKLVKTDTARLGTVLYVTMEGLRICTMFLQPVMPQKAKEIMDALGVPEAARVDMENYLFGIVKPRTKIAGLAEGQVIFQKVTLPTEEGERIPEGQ

Results are percentages, as filed.
The record does not define 0% and 100%; most values in the screen are far below 50% and negative numbers occur (in some assays of this library far below -100).
The compounds are a random part of those screened.

- Cc1nc(NCc2cccc(F)c2)cc(C2CCNCC2)n1.Cl : A: -3.606%; B: -9.727%
- COc1ccc(Nc2nc(N)c(C(C)=O)s2)cc1OC : A: 3.131%; B: 35.33%; C: 19.83%
- CCC1CCCCN1Cc1ncc(C(C)(C)C)o1 (configuration not stated) : A: 2.884%; B: -71.87%; C: 15.67%
- COc1cc(F)c(-n2cnc(CCNC(C)=O)c2)cc1F : A: 26.44%; B: 15.48%; C: 14.66%
- Cc1ccc(CNC2(Cc3cc(-c4ccccn4)on3)COC2)o1 : A: -24.82%; B: 24.28%; C: 7.119%
- Cn1cc(C(=O)CC2CCCN2C(=O)c2ccncc2F)cn1 (configuration not stated) : A: 3.042%; B: -38.39%; C: 19.37%
- CSc1ccc(NC(=O)NCC(O)C(C)C)cc1F (configuration not stated) : A: 5.309%; B: 19.33%; C: 6.806%
- CCC[C@H]1CN(Cc2nccn2C)C[C@@H]1NC(=O)C1(COC)CCC1 : A: -13.95%; B: -0.4084%; C: 7.447%
- Cc1cc(C(=O)N2CCCC(C(=O)c3cccs3)C2)c(=O)[nH]c1C (configuration not stated) : A: -4.31%; C: -1.875%
- c1cnnc(NCC2CN(CC3CCOCC3)CCO2)c1 (configuration not stated) : A: -7.572%; C: 21.02%
- CCn1nccc1CNC(=O)C1CCC1 : A: 1.205%; B: 3.2%; C: 16.63%
- Cn1ccnc1CN1CCN(Cc2ccncc2)[C@@H]2CS(=O)(=O)C[C@@H]21 : C: 16.45%
- COCCN1CCn2c(CN(C)C(C)C)cnc2C1.O=C(O)C(F)(F)F.O=C(O)C(F)(F)F : A: -25.45%
- Cc1ccc(CN2CCn3c(CN(C)C(C)C)cnc3C2)s1 : C: 6.402%
- O=C(C[C@H]1[C@H]2CN(C(=O)c3cccnc3)C[C@@H]12)Nc1cccnc1 : C: 16.06%
- CN(Cc1cc(Br)cn1C)C(=O)c1ccsc1 : A: 15.3%; B: 23.54%; C: -0.3226%
- O=S(=O)(N1CCCC1)N1CCN(CC2CCCO2)CC1 (configuration not stated) : A: -15.26%; B: 29.26%; C: 14.87%
- COC(=O)CCN(CC1CCCO1)C(=O)CCc1ccc(OC)cc1 (configuration not stated) : A: -26.47%; B: -6.136%; C: 0.2688%
- CCN(CC1CCOC1)C(=O)Cn1nnn(-c2cccs2)c1=O (configuration not stated) : A: 8.113%; B: -8.9%; C: 13.31%
- CCn1c(-c2ccccc2)nn(CC(=O)NCCc2c[nH]cn2)c1=O : A: -29.42%; C: 1.875%
- O=C(c1nn(-c2ccccc2F)cc1O)N1CCCC1 : A: 42.43%; B: -13.94%; C: 14.29%
- Cn1cccc1-c1cc(C(=O)N2CCCC2c2cccnc2)[nH]n1 (configuration not stated) : A: 16.45%; B: -3.096%; C: 9.63%
- Cc1cc(C)c(CNC(=O)NCC2Cc3ccccc32)c(=O)[nH]1 (configuration not stated) : A: 4.239%; C: 20.7%
- CC(C)Oc1cccc(C(=O)C2CCCN(C(=O)c3ccnn3C)C2)c1 (configuration not stated) : A: -9.475%; B: -16.38%; C: 4.178%
- Cc1occc1C(=O)NCC(=O)N(C)CCCOc1ccc(F)cc1 : A: -19.42%; B: 20.89%; C: 12.59%
- Cc1n[nH]c(C2CN(C(=O)c3ccon3)CCO2)n1 (configuration not stated) : A: -6.962%; B: -7.591%; C: 14.7%
- Cc1ccc(C(=O)N2C[C@H]3CCC[C@@]3(COCC3CCOCC3)C2)o1 : C: 5.333%
- O=C(C1CC1)N1CCCN(c2ncnc3c2CCNCC3)CC1 : A: -1.729%; B: 9.471%; C: 17.25%
- Cc1ccccc1OCCC(=O)N1CCC(c2nncn2C)CC1 : A: 0.6475%; C: 13.25%

The last 2 entries again:

* O=C(C1CC1)N1CCCN(c2ncnc3c2CCNCC3)CC1 | A: -1.729%; B: 9.471%; C: 17.25%
* Cc1ccccc1OCCC(=O)N1CCC(c2nncn2C)CC1 | A: 0.6475%; C: 13.25%

The values are deposited in ChEMBL (CHEMBL3988442, “University of Dundee, Small-Polar-MMV Screening Library” (2021)).